Results from article doi:10.1101/2024.07.12.603229.
These are yes or no findings as the source states them, for the method shown. In cells and extracts the contact can be indirect. A result given as binding can be weak or reduced; the word gives no strength.

Sequences of proteins named here, by UniProt entry; tags and fusion partners are left off. Residues count along the entry.
UniProt Q9ZWC8, residues 22-1166: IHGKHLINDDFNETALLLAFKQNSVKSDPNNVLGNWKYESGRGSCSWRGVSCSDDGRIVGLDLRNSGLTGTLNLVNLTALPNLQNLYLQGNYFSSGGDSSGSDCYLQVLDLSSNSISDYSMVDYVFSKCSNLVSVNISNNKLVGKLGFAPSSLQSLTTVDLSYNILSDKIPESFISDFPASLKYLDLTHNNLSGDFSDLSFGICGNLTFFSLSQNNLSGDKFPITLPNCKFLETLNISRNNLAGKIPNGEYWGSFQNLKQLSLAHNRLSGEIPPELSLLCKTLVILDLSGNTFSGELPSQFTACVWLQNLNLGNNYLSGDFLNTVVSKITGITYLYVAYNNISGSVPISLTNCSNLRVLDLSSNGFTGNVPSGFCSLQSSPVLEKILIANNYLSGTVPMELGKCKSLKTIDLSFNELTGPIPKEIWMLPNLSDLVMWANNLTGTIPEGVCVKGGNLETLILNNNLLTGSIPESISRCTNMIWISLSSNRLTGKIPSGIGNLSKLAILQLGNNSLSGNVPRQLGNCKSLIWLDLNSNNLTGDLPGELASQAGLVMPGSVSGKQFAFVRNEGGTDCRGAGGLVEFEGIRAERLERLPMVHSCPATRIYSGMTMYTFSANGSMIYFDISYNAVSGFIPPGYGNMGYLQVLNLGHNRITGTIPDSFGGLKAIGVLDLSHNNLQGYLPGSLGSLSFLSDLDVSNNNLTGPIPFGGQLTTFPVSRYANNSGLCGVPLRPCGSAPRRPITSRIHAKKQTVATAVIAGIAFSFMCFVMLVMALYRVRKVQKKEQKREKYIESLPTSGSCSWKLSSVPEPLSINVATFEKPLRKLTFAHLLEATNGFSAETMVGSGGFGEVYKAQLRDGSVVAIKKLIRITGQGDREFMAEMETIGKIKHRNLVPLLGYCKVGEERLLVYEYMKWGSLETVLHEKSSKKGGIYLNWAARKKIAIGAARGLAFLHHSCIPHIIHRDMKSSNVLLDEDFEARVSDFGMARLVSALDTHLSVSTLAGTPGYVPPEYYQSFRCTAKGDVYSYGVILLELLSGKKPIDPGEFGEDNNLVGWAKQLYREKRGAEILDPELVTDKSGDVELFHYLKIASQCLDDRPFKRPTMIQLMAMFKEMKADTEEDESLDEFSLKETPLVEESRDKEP
UniProt O22476, residues 24-1196: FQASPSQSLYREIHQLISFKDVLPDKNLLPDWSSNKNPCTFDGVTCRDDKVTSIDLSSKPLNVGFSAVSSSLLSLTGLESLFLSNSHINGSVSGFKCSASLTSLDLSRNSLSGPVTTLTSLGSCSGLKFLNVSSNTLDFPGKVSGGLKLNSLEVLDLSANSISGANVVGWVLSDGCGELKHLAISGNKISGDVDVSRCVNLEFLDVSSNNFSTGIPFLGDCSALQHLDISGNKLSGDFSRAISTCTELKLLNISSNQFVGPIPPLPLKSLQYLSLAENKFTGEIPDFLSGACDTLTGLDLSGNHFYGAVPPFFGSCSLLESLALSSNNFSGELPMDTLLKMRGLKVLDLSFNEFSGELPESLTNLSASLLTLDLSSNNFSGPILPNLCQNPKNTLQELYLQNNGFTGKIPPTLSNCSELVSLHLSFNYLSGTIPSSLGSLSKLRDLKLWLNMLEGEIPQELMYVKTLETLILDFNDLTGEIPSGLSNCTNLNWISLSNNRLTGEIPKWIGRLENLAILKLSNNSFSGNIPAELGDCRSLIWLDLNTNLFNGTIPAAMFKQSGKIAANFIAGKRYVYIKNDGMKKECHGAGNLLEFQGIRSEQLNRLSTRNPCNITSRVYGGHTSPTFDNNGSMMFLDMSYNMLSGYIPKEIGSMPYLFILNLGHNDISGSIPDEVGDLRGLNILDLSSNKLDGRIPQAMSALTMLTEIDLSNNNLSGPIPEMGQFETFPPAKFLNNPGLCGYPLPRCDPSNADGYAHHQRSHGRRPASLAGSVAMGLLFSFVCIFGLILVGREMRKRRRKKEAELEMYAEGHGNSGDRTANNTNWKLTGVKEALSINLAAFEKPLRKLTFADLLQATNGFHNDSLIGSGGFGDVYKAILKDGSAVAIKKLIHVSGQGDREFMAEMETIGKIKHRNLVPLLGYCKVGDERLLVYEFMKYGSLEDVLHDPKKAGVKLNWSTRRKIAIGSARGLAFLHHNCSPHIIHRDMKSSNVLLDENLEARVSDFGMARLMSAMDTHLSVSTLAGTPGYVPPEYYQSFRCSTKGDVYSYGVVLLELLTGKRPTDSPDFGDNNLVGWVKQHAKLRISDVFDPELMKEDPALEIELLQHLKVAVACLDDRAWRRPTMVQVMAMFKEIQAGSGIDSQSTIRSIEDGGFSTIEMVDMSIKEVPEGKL
UniProt Q9LJF3, residues 24-1164: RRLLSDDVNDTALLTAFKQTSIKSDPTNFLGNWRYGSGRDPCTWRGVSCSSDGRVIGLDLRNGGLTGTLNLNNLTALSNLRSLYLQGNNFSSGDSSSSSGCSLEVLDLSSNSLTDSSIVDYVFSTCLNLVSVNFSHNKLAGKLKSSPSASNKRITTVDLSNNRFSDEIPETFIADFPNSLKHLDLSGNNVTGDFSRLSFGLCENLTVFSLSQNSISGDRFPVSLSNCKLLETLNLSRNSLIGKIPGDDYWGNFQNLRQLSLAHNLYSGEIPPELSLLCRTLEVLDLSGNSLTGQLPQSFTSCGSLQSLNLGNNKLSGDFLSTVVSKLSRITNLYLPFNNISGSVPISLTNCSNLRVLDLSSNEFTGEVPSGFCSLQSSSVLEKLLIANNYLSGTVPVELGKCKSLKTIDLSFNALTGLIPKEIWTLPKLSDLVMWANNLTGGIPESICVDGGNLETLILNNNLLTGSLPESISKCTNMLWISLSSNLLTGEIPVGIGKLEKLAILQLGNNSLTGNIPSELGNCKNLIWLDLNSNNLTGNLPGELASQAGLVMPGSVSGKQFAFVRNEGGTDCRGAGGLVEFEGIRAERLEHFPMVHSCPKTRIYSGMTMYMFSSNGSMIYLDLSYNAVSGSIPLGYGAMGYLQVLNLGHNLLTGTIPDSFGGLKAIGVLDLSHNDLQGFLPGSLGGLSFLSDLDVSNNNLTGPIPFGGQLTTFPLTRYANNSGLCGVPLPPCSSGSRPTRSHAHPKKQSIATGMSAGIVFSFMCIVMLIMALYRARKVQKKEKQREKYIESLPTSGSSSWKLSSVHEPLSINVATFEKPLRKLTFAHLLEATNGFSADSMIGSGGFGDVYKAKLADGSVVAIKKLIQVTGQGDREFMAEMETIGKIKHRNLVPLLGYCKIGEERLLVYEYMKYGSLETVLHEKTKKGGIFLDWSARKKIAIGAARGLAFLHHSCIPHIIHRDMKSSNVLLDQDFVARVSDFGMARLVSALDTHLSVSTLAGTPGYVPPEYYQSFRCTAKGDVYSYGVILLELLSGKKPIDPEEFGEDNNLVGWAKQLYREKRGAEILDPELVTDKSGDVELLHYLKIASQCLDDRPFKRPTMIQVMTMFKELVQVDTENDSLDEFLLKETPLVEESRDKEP

How the values were obtained:
Test in all cases: split reporter
[1] = molecular target: BRL1, BiFC fusion (UniProt Q9ZWC8)
[2] = molecular target: BRI1-mCitN (35S::BRI1-mCitN), BiFC fusion (Arabidopsis thaliana) (UniProt O22476)
[3] = molecular target: BRL3, BiFC fusion (UniProt Q9LJF3)

binding [1]: binds
binding [2]: binds
binding [3]: binds
Substance: MBAP1-mCitC (35S::MBAP1-mCitC), BiFC fusion (from UniProt Q9LQI8)
